No constants are given. Whether binding was seen depends on the method and setting. Binding seen in cells or lysates may run through a third protein. Some binding calls cover weakened binding; strength is not graded here.
Target: Flag-CK2α (casein kinase 2 alpha), wild type (UniProt P68400)
Experiment: co-IP; HEK293 cells transfected with both Myc-GRP94 and Flag-CK2α; immunoprecipitation with anti-Flag antibody; lysis buffer 50 mM Tris pH 7.5, 150 mM NaCl, 10% glycerol, 0.5% Nonidet P-40

Amino acid sequences for entries named in this document (tags omitted). Residues count along the entry.
UniProt P68400: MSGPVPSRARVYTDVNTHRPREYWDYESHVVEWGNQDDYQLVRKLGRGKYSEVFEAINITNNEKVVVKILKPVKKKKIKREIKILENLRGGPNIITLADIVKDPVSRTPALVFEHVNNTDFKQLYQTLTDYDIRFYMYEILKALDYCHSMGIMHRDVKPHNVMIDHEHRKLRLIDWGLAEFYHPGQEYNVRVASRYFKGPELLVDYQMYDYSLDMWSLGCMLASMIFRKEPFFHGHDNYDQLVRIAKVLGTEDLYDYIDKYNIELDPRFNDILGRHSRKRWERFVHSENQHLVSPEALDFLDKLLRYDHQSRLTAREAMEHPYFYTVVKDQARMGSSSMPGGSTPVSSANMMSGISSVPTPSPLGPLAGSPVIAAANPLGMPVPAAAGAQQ
UniProt P14625, residues 22-803: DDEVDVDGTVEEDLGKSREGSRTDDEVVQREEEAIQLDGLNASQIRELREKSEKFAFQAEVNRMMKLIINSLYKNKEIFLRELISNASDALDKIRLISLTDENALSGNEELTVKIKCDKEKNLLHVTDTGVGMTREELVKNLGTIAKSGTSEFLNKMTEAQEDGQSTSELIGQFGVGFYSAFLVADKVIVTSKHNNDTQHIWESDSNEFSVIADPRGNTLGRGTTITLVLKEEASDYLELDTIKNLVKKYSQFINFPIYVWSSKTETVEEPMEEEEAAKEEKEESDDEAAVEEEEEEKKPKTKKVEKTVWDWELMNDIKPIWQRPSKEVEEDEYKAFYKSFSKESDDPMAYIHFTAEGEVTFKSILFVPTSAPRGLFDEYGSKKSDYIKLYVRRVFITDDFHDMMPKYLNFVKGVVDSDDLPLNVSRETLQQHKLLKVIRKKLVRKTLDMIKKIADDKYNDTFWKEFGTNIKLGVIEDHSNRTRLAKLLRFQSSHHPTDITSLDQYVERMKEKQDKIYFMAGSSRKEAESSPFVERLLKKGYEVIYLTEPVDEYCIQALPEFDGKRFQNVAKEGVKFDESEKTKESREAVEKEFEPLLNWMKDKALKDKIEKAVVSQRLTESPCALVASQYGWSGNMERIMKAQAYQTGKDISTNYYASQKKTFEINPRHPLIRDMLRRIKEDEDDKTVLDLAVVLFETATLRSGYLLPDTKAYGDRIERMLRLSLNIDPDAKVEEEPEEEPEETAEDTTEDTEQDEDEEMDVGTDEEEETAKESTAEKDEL

Substance: Myc-GRP94 (glucose-regulated protein 94), wild type (from UniProt P14625 22-803)
- binding: binds

Reference: article PMC11035675
